The test has as its target T1, DZIP1-GFP (Drosophila) (UniProt Q9VC70).
T1 sequence: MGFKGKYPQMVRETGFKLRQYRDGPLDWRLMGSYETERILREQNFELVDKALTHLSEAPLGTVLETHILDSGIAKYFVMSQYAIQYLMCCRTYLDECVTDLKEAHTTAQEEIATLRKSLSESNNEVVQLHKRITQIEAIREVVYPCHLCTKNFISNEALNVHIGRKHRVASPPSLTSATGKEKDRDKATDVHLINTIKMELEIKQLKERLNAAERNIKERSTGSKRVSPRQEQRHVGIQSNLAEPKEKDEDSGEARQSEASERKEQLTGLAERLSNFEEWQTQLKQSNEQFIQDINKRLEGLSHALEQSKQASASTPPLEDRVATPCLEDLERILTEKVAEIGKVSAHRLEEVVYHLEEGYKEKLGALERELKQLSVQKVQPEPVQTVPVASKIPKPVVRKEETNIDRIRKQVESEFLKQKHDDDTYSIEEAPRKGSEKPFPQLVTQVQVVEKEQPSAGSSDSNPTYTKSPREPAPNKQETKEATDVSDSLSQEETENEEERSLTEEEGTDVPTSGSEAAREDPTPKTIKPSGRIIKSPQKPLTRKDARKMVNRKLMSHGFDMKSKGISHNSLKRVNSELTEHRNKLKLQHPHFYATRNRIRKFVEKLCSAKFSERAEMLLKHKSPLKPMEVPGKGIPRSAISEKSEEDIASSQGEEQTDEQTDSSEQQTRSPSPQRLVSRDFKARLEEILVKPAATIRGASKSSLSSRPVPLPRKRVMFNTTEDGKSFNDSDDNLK
The experiment in a line: co-IP; Drosophila S2 cells transiently transfected, 48 h; lysis in 10 mM Tris pH 7.5, 150 mM NaCl, 0.5 mM EDTA, 0.5% NP-40; anti-GFP nanobody agarose (GFP-trap) beads, 1 h at 4°C; blot with anti-GFP and anti-HA.

No constants are given. Whether binding was seen depends on the method and setting. Binding seen in cells or lysates may run through a third protein. Binding calls can cover weak binding; strength is not graded here. Tags and fused reporters may be left off the sequences shown.

As for CBY-HA (Drosophila), the binding result is on record as “binds”.

The record behind these values is article PMC7793253, “CEP290 is essential for the initiation of ciliary transition zone assembly” (PLoS Biology, 2020).
